# Measured values taken from PubChem BioAssay AID1259354 (Paczesny and Yang Labs, IUPUI and University of Michigan, 2018).
# The chains behind the UniProt entries cited, without tags or fusion partners. Where a name states a change or a piece, a line headed by the entry shows the natural chain unless it says otherwise.
# UniProt Q01638: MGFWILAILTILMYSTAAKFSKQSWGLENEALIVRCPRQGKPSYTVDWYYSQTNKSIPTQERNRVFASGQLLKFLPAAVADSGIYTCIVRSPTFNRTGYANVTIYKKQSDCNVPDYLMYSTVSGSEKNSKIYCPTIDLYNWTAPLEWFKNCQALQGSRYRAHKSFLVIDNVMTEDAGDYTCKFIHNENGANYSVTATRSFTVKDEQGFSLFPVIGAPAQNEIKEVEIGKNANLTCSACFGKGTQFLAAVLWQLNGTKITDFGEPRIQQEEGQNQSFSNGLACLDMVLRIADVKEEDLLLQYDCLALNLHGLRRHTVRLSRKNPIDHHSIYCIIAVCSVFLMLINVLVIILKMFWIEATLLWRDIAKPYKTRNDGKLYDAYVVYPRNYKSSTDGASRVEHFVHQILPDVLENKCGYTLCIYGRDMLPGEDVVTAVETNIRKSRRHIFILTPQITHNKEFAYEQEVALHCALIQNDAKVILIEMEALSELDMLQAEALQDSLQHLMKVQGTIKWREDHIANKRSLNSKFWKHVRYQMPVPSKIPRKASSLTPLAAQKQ
# The campaign covered roughly 78,000 compounds. About 1,800 (2.3%) were called active. Inconclusive results, whose numbers are uncertain, are shown with a selection of clear calls. Cut-off read from the data, not from the text of the source: active = inhibition above about 30%; inconclusive = mostly about 10% to 28%; inactive = weaker than that.
# Target: Interleukin-1 receptor-like 1 (Homo sapiens) (UniProt Q01638)
# Experiment: blocks human ST2 binding to IL-33, primary screen, biochemical, AlphaLISA (AID 1259354)
# Details: AlphaLISA ST2-Fc/biotin-IL-33 interaction, 1 h; at 17 µM, stronger effect = higher value
row,SMILES,inhibition
1,CCCN1C(=O)C(C(O)c2ccc(OC)c(OCC)c2)SC1=Nc1ccccc1 (stereo unspecified),inconclusive: 16%
2,O=C(c1cc2cc3ccc(Cl)cc3nc2o1)N1CCCCCC1,inconclusive: 20%
3,Cc1ccc(Nc2c(-c3ccc(C)cc3)nc3cnccn23)cc1,inconclusive: 13%
4,CCOc1ccc(C(=O)Nc2cccc(OCc3cc(=O)n4cc(Cl)ccc4n3)c2)cc1,active: 31%
5,COc1ccc(Nc2ncnc3c2cnn3-c2ccccc2)cc1Cl,inactive
6,COc1ccccc1N1CCN(c2nc(-c3ccccc3O)nc3ccccc23)CC1,inconclusive: 19%
7,Cc1nc2cc(NC(=O)c3ccc(S(=O)(=O)N(C)C)cc3)ccc2s1,inactive
8,CC(C)Cc1cc(C(=O)Nc2cc(Cl)ccc2O)no1,inactive
9,CCOc1ccc(NC(=O)c2cc3c(=O)n4ccccc4nc3n2C)cc1,inconclusive: 18%
10,O=C(NCc1ccco1)C1CCN(c2ccc(-c3cccs3)nn2)CC1,inconclusive: 12%
11,COc1ccc(NCC(O)Cn2c(C)c(C)c3ccccc32)cc1 (stereo unspecified),active: 32%
12,Nc1ccc(NC(=O)c2cc(Cl)ccc2O)c(Cl)c1,inconclusive: 12%
13,Cc1ccc(NC(=O)Nc2ccccc2)cc1[N+](=O)[O-],inconclusive: 21%
14,CCC(=O)N1c2ccccc2NC2=C(C(=O)CC(c3ccccc3)C2)C1c1ccc2c(c1)OCO2 (stereo unspecified),inactive
15,Cc1cc(CNC(=O)CN2C(=O)CNC2=O)c2[nH]c(-c3ccccc3)c(C)c2c1,inconclusive: 17%
16,COc1ccccc1NCN1C(=O)S/C(=C/c2ccccc2Cl)C1=O,inconclusive: 19%
17,Cc1n[nH]c(C)c1CNc1ccc(-c2nc(-c3ccccc3F)no2)cn1,inconclusive: 12%
18,COc1ccc(Nc2cc(C)nc(Nc3ccc(NC(=O)c4cccc(OC)c4)cc3)n2)cc1,inconclusive: 24%
19,COCCCNC(=O)CN1C(=O)/C(=C\c2ccc(Cl)cc2)Sc2ccccc21,inactive
20,CC(=O)N1c2c(cc(Br)cc2S(=O)(=O)Nc2cccnc2)CC1C (stereo unspecified),inconclusive: 11%
21,CC(=O)Nc1ccc(C2Nc3ccccc3C(c3ccccc3)(c3ccccc3)O2)cc1 (stereo unspecified),inconclusive: 16%
22,CCc1ccc(CN2CCN(Cc3ccc4c(c3)OCO4)CC2)cc1,inconclusive: 13%
23,CC(C)(C)C(=O)Nc1nc(-c2cc3ccccc3oc2=O)cs1,inconclusive: 14%
24,CN1CCCc2cc(C#N)c(=O)[nH]c21,inconclusive: 13%
25,CCn1c(=O)n(-c2ccc(C)c(C)c2)c2nc(-c3c(C)cc(C)cc3C)nc(C(N)=O)c21,inactive
26,CCOC(=O)c1cc2cc(Cl)cc(Cl)c2oc1=O,inconclusive: 12%

# From entry 22 to 23, as listed above:
row,SMILES,inhibition
22,CCc1ccc(CN2CCN(Cc3ccc4c(c3)OCO4)CC2)cc1,inconclusive: 13%
23,CC(C)(C)C(=O)Nc1nc(-c2cc3ccccc3oc2=O)cs1,inconclusive: 14%
